According to patent US6222018:
Where cells or extracts were used, other partners may take part. For part of these data: Negatives hold for the conditions tested. For part of these data: Construct, isoform or probe ends are uncertain for at least one entry.

Experiments:
[1] = system: constitutive DNA binding factor (C1/C2) (Homo sapiens); test: EMSA; settings: sequence-specific; protein in an extract; letters built from the parent sequence and the stated change
[2] = system: HIF-1 (HIF-1alpha/HIF-1beta (ARNT)) in nuclear extract (Homo sapiens); test: EMSA; settings: CoCl2/hypoxia-induced; supershifted by anti-HIF-1alpha and anti-HIF-1beta sera; protein in an extract; letters built from the parent sequence and the stated change
[3] = system: HIF-1 (HIF-1alpha/HIF-1beta (ARNT)) in nuclear extract (Homo sapiens); test: competition with a labelled probe; settings: unlabeled M18 does not compete, crude hypoxic Hep3B extract; protein in an extract; letters built from the parent sequence and the stated change; variant of W18 (hEPO 3'-FS nt 1-18)

| Sequence | binding result [1] | binding result [2] | binding result [3] |
| --- | --- | --- | --- |
| GATCGCCCTACGTGCTGTCTCA / GATCTGAGACAGCACGTAGGGC [W18 (hEPO 3'-FS nt 1-18)] | binds | binds | – |
| GATCGCCCTAAAAGCTGTCTCA / GATCTGAGACAGCTTTTAGGGC [M18] | – | – | no binding |
